No constants are given. Whether binding was seen depends on the method and setting. Some results given as binding are weak or reduced against the parent protein; the word gives no strength.

The assay deals with Tet Methylcytosine Dioxygenase 2 (TET2), purified from Sf9 (human), Q6N021. The assay is described as follows: pull-down; in vitro pulldown with proteins purified from Sf9; CXXC5 incubated with AR and TET2 together; by the methods His-tagged CXXC5 held on Ni-NTA beads, binding buffer with 10 mM imidazole, 4 h at 4 °C; both purified. The note with it: remark: other sources report otherwise.

B1: Androgen receptor (AR), purified from Sf9, P10275 1-920 (protein)
chain: MEVQLGLGRVYPRPPSKTYRGAFQNLFQSVREVIQNPGPRHPEAASAAPPGASLLLLQQQQQQQQQQQQQQQQQQQQQQQETSPRQQQQQQGEDGSPQAHRRGPTGYLVLDEEQQPSQPQSALECHPERGCVPEPGAAVAASKGLPQQLPAPPDEDDSAAPSTLSLLGPTFPGLSSCSADLKDILSEASTMQLLQQQQQEAVSEGSSSGRAREASGAPTSSKDNYLGGTSTISDNAKELCKAVSVSMGLGVEALEHLSPGEQLRGDCMYAPLLGVPPAVRPTPCAPLAECKGSLLDDSAGKSTEDTAEYSPFKGGYTKGLEGESLGCSGSAAAGSSGTLELPSTLSLYKSGALDEAAAYQSRDYYNFPLALAGPPPPPPPPHPHARIKLENPLDYGSAWAAAAAQCRYGDLASLHGAGAAGPGSGSPSAAASSSWHTLFTAEEGQLYGPCGGGGGGGGGGGGGGGGGGGGGGGEAGAVAPYGYTRPPQGLAGQESDFTAPDVWYPGGMVSRVPYPSPTCVKSEMGPWMDSYSGPYGDMRLETARDHVLPIDYYFPPQKTCLICGDEASGCHYGALTCGSCKVFFKRAAEGKQKYLCASRNDCTIDKFRRKNCPSCRLRKCYEAGMTLGARKLKKLGNLKLQEEGEASSTTSPTEETTQKLTVSHIEGYECQPIFLNVLEAIEPGVVCAGHDNNQPDSFAALLSSLNELGERQLVHVVKWAKALPGFRNLHVDDQMAVIQYSWMGLMVFAMGWRSFTNVNSRMLYFAPDLVFNEYRMHKSRMYSQCVRMRHLSQEFGWLQITPQEFLCMKALLLFSIIPVDGLKNQKFFDELRMNYIKELDRIIACKRKNPTSCSRRFYQLTKLLDSVQPIARELHQFTFDLLIKSHMVSVDFPEMMAEIISVQVPKILSGKVKPIYFHTQ
As to B1, the binding entry was “binds”.

The values are drawn from publication PMC7943793.
